From article PMC11720309, “Transcriptional regulation of miR528-PPO module by miR156 targeted SPLs orchestrates chilling response in banana” come the findings set out here.

Construct, isoform or probe ends are uncertain for at least one entry. For some of these results: No signal at the amounts used counts as a negative.

In data set [1] the test system is MaSPL25. In words: competition with a labelled probe. The note with it: unlabeled competitor vs biotin-N1 (EMSA); Chemiluminescent EMSA Kit (Thermo Fisher); pH and temperature not stated; recombinant protein; protein details: GST (N-terminal, pGEX-4T-3); label: none (biotin-free mutant competitor).
For data set [2], the system named is MaSPL42. In words: competition with a labelled probe. The note with it: unlabeled competitor vs biotin-N1 (EMSA); Chemiluminescent EMSA Kit (Thermo Fisher); pH and temperature not stated; recombinant protein; protein details: GST (N-terminal, pGEX-4T-3); label: none (biotin-free mutant competitor).
Data set [3] deals with MaSPL25. As to the kind of experiment: EMSA. The note with it: Chemiluminescent EMSA Kit (Thermo Fisher); pH and temperature not stated; recombinant protein; protein details: GST (N-terminal, pGEX-4T-3).
In data set [4] the test system is MaSPL42. As to the kind of experiment: EMSA. The conditions noted are these: Chemiluminescent EMSA Kit (Thermo Fisher); pH and temperature not stated; recombinant protein; protein details: GST (N-terminal, pGEX-4T-3).

For “GCGCAAAAAAGTGCAAAAATAAGATACTACACAAACCACACAATAGAAAAAACACTATC (double strand) [MamiR528pro-mut-probe]”, the binding result in data set [1] and in data set [2] was “no binding” throughout.
As for “GCGCAGTACAGTGCAGTACTAAGATACTACACAAACCACACAATAGAAGTACCACTATC (double strand) [MamiR528pro-probe]”, the binding result in data set [3] and in data set [4] was “binds” throughout.
